{"source": "PubChem BioAssay AID504774 | Drosophila RNAi Screening Center – 2011", "assay": "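Fly genes whose loss alters survival after alkylation damage to DNA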 (primary screen)", "cell system": "Drosophila Kc167 cells", "knock-down reagent": "long dsRNA against Drosophila genes, about 0.25 µg dsRNA per well", "timing": "about 6 days: 3 days knock-down, then 3 days with or without MMS", "treatment": "methyl methanesulphonate 0.004% (w/v) for 3 days after knock-down", "detection": "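Viability in wells given MMS, read as ATP luminescence, normalised by quantiles plate by plate and averaged across replicates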", "reading the numbers": "mean viability with MMS and viability with MMS: higher = more surviving cells after MMS", "note": "The deposit covers about 23,000 reagents; below is a random part of those that have a named target and a result. 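Values are quantile-normalised luminescence on an arbitrary scale; higher means more cells surviving MMS.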 Names joined by + are all predicted targets of the reagent. Further read-outs or replicates are left out here."}
{"target": "ND-19", "DRSC id": "DRSC04404", "mean viability with MMS": 3.60e6, "viability with MMS, replicate 1": 4.10e6}
{"target": "ttv", "DRSC id": "DRSC07709", "mean viability with MMS": 3.62e6, "viability with MMS, replicate 1": 4.00e6}
{"target": "gammaSnap1", "DRSC id": "DRSC04686", "mean viability with MMS": 3.59e6, "viability with MMS, replicate 1": 4.03e6}
{"target": "CG12290", "DRSC id": "DRSC14497", "mean viability with MMS": 3.67e6, "viability with MMS, replicate 1": 4.14e6}
{"target": "CG18135", "DRSC id": "DRSC10295", "mean viability with MMS": 3.52e6, "viability with MMS, replicate 1": 4.04e6}
{"target": "CG10195", "DRSC id": "DRSC02026", "mean viability with MMS": 3.59e6, "viability with MMS, replicate 1": 4.08e6}
{"target": "SP2353", "DRSC id": "DRSC07545", "mean viability with MMS": 3.22e6, "viability with MMS, replicate 1": 3.62e6}
{"target": "CG43901", "DRSC id": "DRSC19397", "mean viability with MMS": 3.43e6, "viability with MMS, replicate 1": 3.94e6}
{"target": "CG43901", "DRSC id": "DRSC19652", "mean viability with MMS": 2.94e6, "viability with MMS, replicate 1": 3.69e6}
{"target": "Act57B", "DRSC id": "DRSC04042", "mean viability with MMS": 3.55e6, "viability with MMS, replicate 1": 3.75e6}
{"target": "CG17159 + CG17162", "DRSC id": "DRSC20899", "mean viability with MMS": 3.50e6, "viability with MMS, replicate 1": 4.01e6}
{"target": "CG17159 + CG17162", "DRSC id": "DRSC20900", "mean viability with MMS": 3.50e6, "viability with MMS, replicate 1": 3.96e6}
{"target": "bnb", "DRSC id": "DRSC20314", "mean viability with MMS": 3.68e6, "viability with MMS, replicate 1": 4.11e6}
{"target": "CG8565", "DRSC id": "DRSC20112", "mean viability with MMS": 3.59e6, "viability with MMS, replicate 1": 4.19e6}
{"target": "emp", "DRSC id": "DRSC04019", "mean viability with MMS": 3.84e6, "viability with MMS, replicate 1": 4.54e6}
{"target": "emp", "DRSC id": "DRSC04683", "mean viability with MMS": 3.56e6, "viability with MMS, replicate 1": 4.22e6}

Entries listed so far whose target name starts with E or e:
{"target": "emp", "DRSC id": "DRSC04019", "mean viability with MMS": 3.84e6, "viability with MMS, replicate 1": 4.54e6}
{"target": "emp", "DRSC id": "DRSC04683", "mean viability with MMS": 3.56e6, "viability with MMS, replicate 1": 4.22e6}

Additional reagents follow:
{"target": "l(2)k05911", "DRSC id": "DRSC02523", "mean viability with MMS": 1.98e6, "viability with MMS, replicate 1": 4.17e6}
{"target": "w", "DRSC id": "DRSC17233", "mean viability with MMS": 3.58e6, "viability with MMS, replicate 1": 4.08e6}
{"target": "w", "DRSC id": "DRSC18850", "mean viability with MMS": 3.45e6, "viability with MMS, replicate 1": 3.97e6}
{"target": "Nup160", "DRSC id": "DRSC02774", "mean viability with MMS": 3.08e6, "viability with MMS, replicate 1": 3.58e6}
{"target": "Ir64a", "DRSC id": "DRSC09759", "mean viability with MMS": 3.40e6, "viability with MMS, replicate 1": 3.83e6}
{"target": "Ir64a", "DRSC id": "DRSC09760", "mean viability with MMS": 3.67e6, "viability with MMS, replicate 1": 4.20e6}
{"target": "dpr11", "DRSC id": "DRSC12561", "mean viability with MMS": 3.40e6, "viability with MMS, replicate 1": 3.88e6}
{"target": "dpr11", "DRSC id": "DRSC12562", "mean viability with MMS": 3.71e6, "viability with MMS, replicate 1": 4.16e6}
{"target": "dpr11", "DRSC id": "DRSC12563", "mean viability with MMS": 3.74e6, "viability with MMS, replicate 1": 4.07e6}
{"target": "CG32554", "DRSC id": "DRSC22713", "mean viability with MMS": 3.49e6, "viability with MMS, replicate 1": 3.97e6}
{"target": "CG42471", "DRSC id": "DRSC01210", "mean viability with MMS": 3.69e6, "viability with MMS, replicate 1": 4.09e6}
{"target": "Mnr", "DRSC id": "DRSC20549", "mean viability with MMS": 3.45e6, "viability with MMS, replicate 1": 3.88e6}
{"target": "Mnr", "DRSC id": "DRSC20550", "mean viability with MMS": 3.61e6, "viability with MMS, replicate 1": 3.93e6}
{"target": "Mnr", "DRSC id": "DRSC22441", "mean viability with MMS": 3.42e6, "viability with MMS, replicate 1": 3.98e6}
{"target": "Vha100-1", "DRSC id": "DRSC14148", "mean viability with MMS": 3.64e6, "viability with MMS, replicate 1": 4.11e6}
{"target": "fzr", "DRSC id": "DRSC18781", "mean viability with MMS": 3.54e6, "viability with MMS, replicate 1": 3.99e6}
{"target": "Hml", "DRSC id": "DRSC11183", "mean viability with MMS": 3.33e6, "viability with MMS, replicate 1": 3.76e6}
{"target": "Cdc23", "DRSC id": "DRSC02708", "mean viability with MMS": 3.13e6, "viability with MMS, replicate 1": 3.36e6}
{"target": "Cse1", "DRSC id": "DRSC03287", "mean viability with MMS": 3.26e6, "viability with MMS, replicate 1": 3.58e6}
